From publication PMC7173930, “EAT-18 is an essential auxiliary protein interacting with the non-alpha nAChR subunit EAT-2 to form a functional receptor” (PLoS Pathogens, 2020)
No constants are given. Whether binding was seen depends on the method and setting. In cells and extracts the contact can be indirect. Binding calls can cover weak binding; strength is not graded here. Sequences can lack the tags named with a protein.

Amino acid sequences for entries named in this document (tags omitted). A change or cut given only in a name is not applied to a line headed by its entry.
UniProt Q86DB4: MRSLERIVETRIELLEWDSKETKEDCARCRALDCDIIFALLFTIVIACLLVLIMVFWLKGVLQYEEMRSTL

Biological target: T1, Cel-EAT-2-GFP (C. elegans non-alpha nAChR subunit EAT-2, GFP tagged) (C. elegans) (UniProt Q9U298)
T1 sequence: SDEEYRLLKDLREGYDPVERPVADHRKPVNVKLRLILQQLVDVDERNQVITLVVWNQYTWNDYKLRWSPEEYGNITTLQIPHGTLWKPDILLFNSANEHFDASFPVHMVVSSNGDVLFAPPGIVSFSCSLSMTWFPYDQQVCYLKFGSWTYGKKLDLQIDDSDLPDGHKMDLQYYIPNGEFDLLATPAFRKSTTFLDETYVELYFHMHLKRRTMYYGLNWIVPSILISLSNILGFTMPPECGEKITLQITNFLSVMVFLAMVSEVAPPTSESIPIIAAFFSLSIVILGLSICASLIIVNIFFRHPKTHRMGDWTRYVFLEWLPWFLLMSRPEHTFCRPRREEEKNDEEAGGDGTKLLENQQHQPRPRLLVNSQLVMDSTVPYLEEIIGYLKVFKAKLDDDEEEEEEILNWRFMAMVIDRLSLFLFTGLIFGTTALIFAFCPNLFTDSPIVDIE
Test: co-IP; Xenopus oocyte membrane extracts; Cel-EAT-2-GFP immunoprecipitated with anti-GFP-Trap-A beads, Cel-EAT-18-His detected by Western blot with anti-His antibody; un-injected oocytes and oocytes injected with Cel-EAT-2-GFP alone as negative controls

Which binding does the source give for “Cel-EAT-18c-His (C. elegans EAT-18 isoform c, 6xHis tagged) (from UniProt Q86DB4)” here?
Its binding is “binds”.
